Reference: US20110263509A1 (Haemopep Pharma GmbH, priority 2008, published 2011)

Assay: general procedure: Fmoc solid-phase peptide synthesis; Wang resin loaded with Fmoc-leucine (0.69 mmol/g, 100-200 mesh); HBTU/HOBt/DIEA in NMP
Settings: whole synthesis, RP-HPLC peak integration, acetate

Substance: PEPTIDE1{S.V.S.E.I.Q.L.M.H.N.L.G.K.H.L.N.S.M.E.R.V.E.W.L.R.K.K.L.Q.D.V.H.N.F.V.A.L}$$$$V2.0 [hPTH-1-37]
- final HPLC purity: ≧98%

HELM strings list residues between dots; [ac] is acetyl, [am] amide, other brackets name non-standard units.
